{
  "sequences": {"note": "The chains behind the UniProt entries cited, without tags or fusion partners. Where a name states a change or a piece, a line headed by the entry shows the natural chain unless it says otherwise.", "UniProt Q03431": "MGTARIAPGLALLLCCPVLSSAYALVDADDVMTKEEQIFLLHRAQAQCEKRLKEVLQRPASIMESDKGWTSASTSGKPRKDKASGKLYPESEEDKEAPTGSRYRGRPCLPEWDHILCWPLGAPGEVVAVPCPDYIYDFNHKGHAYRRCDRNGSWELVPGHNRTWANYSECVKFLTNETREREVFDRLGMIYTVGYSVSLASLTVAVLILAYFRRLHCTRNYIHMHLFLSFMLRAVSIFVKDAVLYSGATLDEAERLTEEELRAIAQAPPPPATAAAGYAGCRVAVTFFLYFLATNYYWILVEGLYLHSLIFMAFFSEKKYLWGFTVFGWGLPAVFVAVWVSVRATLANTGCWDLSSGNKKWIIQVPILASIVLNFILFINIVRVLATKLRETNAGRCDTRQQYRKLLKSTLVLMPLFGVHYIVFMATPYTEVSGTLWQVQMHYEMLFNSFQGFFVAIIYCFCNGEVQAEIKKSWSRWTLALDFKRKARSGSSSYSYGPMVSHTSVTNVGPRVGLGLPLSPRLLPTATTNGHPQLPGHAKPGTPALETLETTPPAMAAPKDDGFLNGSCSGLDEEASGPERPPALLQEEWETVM"},
  "source": "PubChem BioAssay AID743266",
  "about": "(National Center for Advancing Translational Sciences (NCATS), 2014)",
  "note": "The whole screen tested about 410,000 compounds, of which about 310 (0.076%) were called active. Inconclusive results, whose numbers are uncertain, are shown with a selection of clear calls. Calls follow the shape of the dose curve; as a rule, active = well fitted activation curve with a large enough effect; inconclusive = small, poorly fitted or top-dose-only effect, or another doubt; inactive = no such curve, though single readings can be large or run the other way. A potency beside an inconclusive call is a rough fit, not a confirmed value. Potency is read from the fitted curve at half-maximal effect.",
  "data": [
    {"target": "Parathyroid hormone/parathyroid hormone-related peptide receptor (Homo sapiens) (UniProt Q03431)", "experiment": "qHTS for PTHR1 Agonists: Primary Screen; also: nearly all actives have a fitted effect of over 55% in size", "conditions": "HEK293 GP2 PTHR1 cells, GloSensor cAMP luminescence, 1 h; activation: at 115 µM (top of the series) unless noted; series mostly up to 115 µM", "outline": "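HEK-293-derived GP2 cells expressing PTHR1 and a GloSensor cAMP reporter, 3,000/well, plated overnight, given luciferin plus IBMX (each 0.5 mM as added) for 1 h at 37 °C, then compound for 1 h at 37 °C. Luminescence was read after 15 min at room temperature.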", "values": [
      {"smiles": "Cc1cc(C=C2C(=O)c3ccccc3C2=O)c(C)n1-c1ccc(C(=O)O)cc1", "activation": "inconclusive: -36.2% [activator]"},
      {"smiles": "Cc1ccc(C(=O)Cn2c(NCCO)nc3ccccc32)cc1", "Potency": "inconclusive: 126 µM [activator, single point]"},
      {"smiles": "O=c1[nH]c(N/N=C\\c2ccc3c(c2)OCO3)nc2ccccc12", "Potency": "inactive"},
      {"smiles": "Cc1ccc(-c2nc3ccccc3c(=O)n2NC(=S)N(C)C)cc1", "activation": "inconclusive: 34% [activator]"},
      {"smiles": "Cc1c(OCC(=O)N[C@@H](Cc2ccccc2)C(=O)O)ccc2c1oc(=O)c1ccccc12", "Potency": "inactive"},
      {"smiles": "Cc1c2cc(O)c(=O)cc-2oc2cc(O)c(O)cc12", "Potency": "inconclusive: 39.8 µM [activator, single point]"},
      {"smiles": "Cc1cc(NC(=O)Cn2nc(C(F)(F)F)c3c2CCC3)no1", "Potency": "inconclusive: 141 µM [activator, single point]"},
      {"smiles": "N#Cc1ccccc1OCC(=O)OCC(=O)Nc1ccc2c(c1)OCO2", "Potency": "inconclusive: 2.24 µM [activator, full curve]"},
      {"smiles": "CCc1ccc(OC(=O)CSc2nnc(-c3ccc(OC)c(OC)c3)o2)cc1", "Potency": "inconclusive: 79.4 µM [activator, partial curve, poor fit]"},
      {"smiles": "CCOc1nc(-c2ccccc2)ccc1-c1noc(-c2ccc(C)cc2)n1", "Potency": "inconclusive: 100 µM [activator, single point]"},
      {"smiles": "CCc1ccccc1S(=O)(=O)Cc1ccc(C(=O)NCCc2ccc(C)cc2)o1", "Potency": "inactive"},
      {"smiles": "COc1cc(C(=O)COC(=O)C2CCN(c3ccc(C(F)(F)F)cn3)CC2)ccc1OC(F)F", "Potency": "inactive"},
      {"smiles": "O=C(COC(=O)C12CC3CC(CC(C3)C1)C2)Nc1nccs1", "activation": "inconclusive: 55.3% [activator]"},
      {"smiles": "Cc1ccc(Nc2nc(N)nc(COC(=O)C3=COCCO3)n2)cc1", "Potency": "inconclusive: 126 µM [activator, single point]"},
      {"smiles": "CCCCCCCCC[n+]1cccc2c3ccccc3ccc21", "Potency": "inactive"},
      {"smiles": "CCc1ccccc1Oc1nc(NC(C)C)nc2ccsc12", "Potency": "inconclusive: 112 µM [activator, single point]"},
      {"smiles": "Cc1cc2nc(C)n(CCCNC(=O)Nc3cccc4ccccc34)c2cc1C", "Potency": "inconclusive: 44.7 µM [activator, single point]"},
      {"smiles": "CCCC(=O)O[C@]1(C(=O)CO)CC[C@H]2[C@@H]3CCC4=CC(=O)CC[C@]4(C)[C@H]3[C@@H](O)C[C@@]21C", "Potency": "inactive"},
      {"smiles": "Cc1ccc2c(c1C)NC(=O)C2(O)CC(=O)c1ccc2c(c1)OCO2", "note": "(centres undefined)", "Potency": "inconclusive: 2.82 µM [activator, full curve, poor fit]"},
      {"smiles": "CSc1ccc(CCNC(=O)c2ccc(CS(=O)(=O)c3ccc(Br)cc3)o2)cc1", "Potency": "inactive"},
      {"smiles": "S=c1[nH]nc(-c2cc(-c3ccco3)[nH]n2)n1-c1cccc2ccccc12", "activation": "inconclusive: 123% [activator] [at 57.5 µM]"},
      {"smiles": "Cc1cc(-c2nnc(SCC(=O)Nc3ccccc3C(F)(F)F)n2N)n[nH]1", "activation": "inconclusive: 31.2% [activator]"},
      {"smiles": "COc1cccc(NC(=O)CN(C)C(=O)c2cc(S(=O)(=O)N3CCCCCC3)ccc2OC)c1", "Potency": "inconclusive: 7.94 µM [activator, full curve, poor fit]"},
      {"smiles": "Cc1cccc(CNC(=O)c2oc3c(c2C)-c2nn(Cc4cccc(Cl)c4)cc2CC3)c1", "Potency": "inactive"},
      {"smiles": "O=C1CNC(=S)N1CCCn1ccnc1", "Potency": "inconclusive: 126 µM [activator, single point]"},
      {"smiles": "Cc1noc(C)c1CCC(=O)N1CCCC(CCC(=O)NCc2ccccc2F)C1", "note": "(centres undefined)", "Potency": "inconclusive: 39.8 µM [activator, single point]"},
      {"smiles": "O=C(O)CCc1ccc(-c2ccccc2)n1NC(=O)c1cccs1", "Potency": "inconclusive: 44.7 µM [activator, single point]"},
      {"smiles": "COc1ccccc1/C=C/c1nc(S(=O)(=O)c2ccccc2)c(NCCN(C)C)o1", "Potency": "inconclusive: 5.62 µM [activator, full curve, poor fit]"},
      {"smiles": "CN(c1ccccc1)S(=O)(=O)c1cccc(NC(=O)CSc2ncn[nH]2)c1", "Potency": "inactive"},
      {"smiles": "O=C(CCCn1c(=S)[nH]c2cc3c(cc2c1=O)OCO3)N1CCN(c2ccccc2F)CC1", "Potency": "inactive"},
      {"smiles": "Cc1cccc(COc2coc(CN3CCN(C(=O)c4ccco4)CC3)cc2=O)c1", "Potency": "inactive"},
      {"smiles": "CCc1nn2c(=O)cc(COC(=O)c3ccc(NC(=O)c4cccs4)cc3)nc2s1", "Potency": "inactive"},
      {"smiles": "O=C(c1ccc(CNS(=O)(=O)c2cccc(C(F)(F)F)c2)cc1)N1CCOCC1", "Potency": "inconclusive: 28.2 µM [activator, partial curve]"},
      {"smiles": "CCOc1ccc(C(=O)Nn2cnnc2)cc1OCC", "activation": "inconclusive: 33.4% [activator]"},
      {"smiles": "Cc1cc(Cl)ccc1OCC(=O)NNC(=O)c1ccco1", "activation": "inconclusive: 63.7% [activator]"},
      {"smiles": "CN(C)CCCN(C(=O)CCOc1ccccc1)c1nc2c(F)cccc2s1", "activation": "inconclusive: -93.8% [activator]"},
      {"smiles": "COc1cc(OC)cc(C(=O)Nc2sc3c(c2C(N)=O)CCC3)c1", "Potency": "inconclusive: 70.8 µM [activator, partial curve, poor fit]"},
      {"smiles": "Cn1c(NC(=O)C2CC2)cc(=O)n(C)c1=O", "Potency": "inconclusive: 112 µM [activator, single point]"},
      {"smiles": "Cc1nn(-c2ccccc2)c2ncc(C(=O)c3cc(Cl)ccc3O)cc12", "Potency": "inactive"},
      {"smiles": "O=C(Cc1ccccc1[N+](=O)[O-])NC1CCN(Cc2ccccc2)CC1", "activation": "inconclusive: -90.9% [activator]"},
      {"smiles": "Cc1c(CNCc2ccc(OC(C)C)cc2)c(C(=O)O)c(C)n1Cc1ccc(Cl)cc1", "activation": "inconclusive: -14% [activator]"},
      {"smiles": "CC(=O)N1CCOc2cc(S(=O)(=O)NCc3ccc(C)cc3)c(C)cc21", "Potency": "inactive"},
      {"smiles": "Cc1cc(C)cc(NC(=O)c2cccnc2)c1", "Potency": "inconclusive: 126 µM [activator, single point]"},
      {"smiles": "CCOC(=O)c1ccc2[nH]c3c(c2c1)CCCC3NC=O", "note": "(centres undefined)", "Potency": "inconclusive: 15.8 µM [activator, partial curve]"},
      {"smiles": "Cc1nn2c(C)c(C(=O)N3CCN(c4ccccc4)CC3)cnc2c1-c1ccccc1", "Potency": "inactive"},
      {"smiles": "O=C(c1ccc(Cl)cc1)N(Cc1ccco1)Cc1ccco1", "Potency": "inactive"},
      {"smiles": "CCC(=O)Nc1ccc(C)cc1-c1nc2ccccc2n(CC(=O)Nc2ccccc2Cl)c1=O", "Potency": "inconclusive: 31.6 µM [activator, partial curve, poor fit]"},
      {"smiles": "COc1cc(C2c3c(oc4ccc(F)cc4c3=O)C(=O)N2c2nc(C)c(C)s2)cc(OC)c1OC", "note": "(centres undefined)", "Potency": "inconclusive: 141 µM [activator, single point]"},
      {"smiles": "Cc1nn(C/C(C#N)=N\\O)c(C)[n+]1N", "Potency": "inconclusive: 8.91 µM [activator, partial curve, poor fit]"},
      {"smiles": "COc1ccc(-n2c(SCCNCCO)nc3sc4c(c3c2=O)CCCC4)cc1", "Potency": "inconclusive: 7.08 µM [activator, partial curve]"},
      {"smiles": "COc1ccc2sc(N(CCCN(C)C)C(=O)c3ccc(C(=O)c4ccccc4)cc3)nc2c1", "Potency": "inconclusive: 89.1 µM [activator, partial curve, poor fit]"},
      {"smiles": "NNC(=O)COc1cccc(Oc2ccccc2)c1", "Potency": "inconclusive: 100 µM [activator, single point]"},
      {"smiles": "COc1ccc(C)cc1NC(=O)CCn1nc(C)cc1C", "Potency": "inconclusive: 17.8 µM [activator, partial curve]"},
      {"smiles": "CN(Cc1nc(-c2cccs2)no1)CC1COCCO1", "note": "(centres undefined)", "Potency": "inconclusive: 126 µM [activator, single point]"},
      {"smiles": "CCCC(=O)NC(c1ccccc1Cl)c1ccc2cccnc2c1O", "note": "(centres undefined)", "Potency": "inconclusive: 22.4 µM [activator, single point]"},
      {"smiles": "CN(C)S(=O)(=O)c1ccc(Cl)c(NC(=O)CN2CCCCCC2)c1", "Potency": "inactive"},
      {"smiles": "CCN1CCN(C(c2ccccc2)c2c(O)cc(C)n(Cc3ccco3)c2=O)CC1", "note": "(centres undefined)", "Potency": "inconclusive: 158 µM [activator, single point]"},
      {"smiles": "COc1cccc(NC(=O)N2CCN(c3nc(-c4cccc(OC)c4)cs3)CC2)c1", "Potency": "inactive"},
      {"smiles": "O=C(COc1ccc(Br)cc1)NCCNC(=O)c1cccnc1", "activation": "inconclusive: 32% [activator]"},
      {"smiles": "Cc1ccccc1NC(=O)c1ccc(F)c(S(=O)(=O)N(C)C2CCCCC2)c1", "Potency": "inactive"},
      {"smiles": "CC(=O)OCCN1CCN(C(=O)CN2C(=O)NC(c3ccccc3)(c3ccccc3)C2=O)CC1", "activation": "inconclusive: 61.5% [activator]"},
      {"smiles": "COc1ccc(-c2cc(=O)oc3cc(OC(=O)C4CCCCC4)c(Cl)cc23)cc1", "Potency": "inconclusive: 15.8 µM [activator, partial curve, poor fit]"},
      {"smiles": "COc1cc2[nH]c(=O)n(CCCCCC(=O)N3CCN(c4ccccc4)CC3)c(=O)c2cc1OC", "Potency": "inconclusive: 0.153 µM [activator, full curve, poor fit]"},
      {"smiles": "O=C(CSc1nccc(=O)[nH]1)Nc1ccc2c(c1)OCCO2", "Potency": "inconclusive: 89.1 µM [activator, partial curve, poor fit]"},
      {"smiles": "CNS(=O)(=O)c1ccc2c3c(cccc13)C(=O)N2", "Potency": "inconclusive: 56.2 µM [activator, partial curve, poor fit]"},
      {"smiles": "Cc1ccc(S(=O)(=O)N2CCN(CC(O)CN3CCOCC3)CC2)cc1", "note": "(centres undefined)", "Potency": "inconclusive: 79.4 µM [activator, partial curve, poor fit]"},
      {"smiles": "CCCCN(CCCC)CCNC(=O)c1cn(C)c2ccc(S(=O)(=O)N3CCCC3)cc2c1=O", "activation": "inconclusive: 91.7% [activator]"},
      {"smiles": "CCOc1ccc(NC(=O)C(=O)NCC2CCCN2CC)cc1", "note": "(centres undefined)", "Potency": "inconclusive: 35.5 µM [activator, single point]"},
      {"smiles": "CC(=O)N[C@@H](Cc1ccc(O)cc1)CN1C(N)=NC[C@@H]1CC(C)C", "Potency": "inactive"}
    ]}
  ]
}
